# Laboratory results taken from PubChem BioAssay AID2417 (National Center for Advancing Translational Sciences (NCATS), 2010).
# Among all 140,000 compounds or so, about 4,300 (3.1%) were called active. This list was built around the results that the source calls inconclusive (neither active nor inactive); the mix of calls is not that of the screen.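 Rule for the calls: active = readout at or below -70, meaning at least 70% loss of cells showing the perinucleolar compartment, a nuclear body marking cancer cells; inconclusive = readout between -30 and a set limit; inactive = the rest.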
# Test: High Content Assay for Compounds that inhibit the Assembly of the Perinucleolar Compartment;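 note: plate controls were DMSO wells for no effect and camptothecin positive control wells for full effect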
# Conditions: PC3M PTB-GFP, PNC prevalence imaging, 16 h; at 10 µM; active compounds read low
# Outline: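 Compounds are pinned in duplicate onto adhered PC3M cells stably expressing GFP-tagged PTB and incubated 16 h at 37 C. Cells are then fixed, nuclei stained with Hoechst, and PNC-positive cells counted.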
row,SMILES,"activity change (PNC), negative = inhibition"
1,CCNC(=O)Cn1cnc2c1c(=O)n(C)c(=O)n2C,inconclusive: -74.3%
2,COc1ccc(CCNC(=O)c2nc3ncccn3n2)cc1OC,active: -107%
3,CCc1sc(C(=O)NC2CCN(C)CC2)cc1Br,inconclusive: -72.3%
4,Cc1ccc(S(=O)(=O)Nc2ccc(C(OC(=O)c3ccccc3[N+](=O)[O-])(C(F)(F)F)C(F)(F)F)cc2)cc1,active: -108%
5,COc1ccc(C2CC(c3cccc(C)c3)n3nc(N)nc3N2)cc1 (stereo unspecified),inconclusive: -31.6%
6,CCOC(=O)c1nn(-c2ccc(C)cc2)cc1O,inconclusive: -36.8%
7,Cc1c(-c2ccc(Br)cc2)nc2ccccn12,inactive: -19.6%
8,Cc1cc2c(cc1C)N(C(=O)CN1C(=O)c3ccccc3C1=O)C(C)(C)c1ssc(=S)c1-2,inconclusive: -43.2%
9,CCOc1ccc(C(=O)NCCCn2ccnc2)cc1,inactive: -12%
10,O=C1c2cccc(OCc3ccc(F)cc3)c2CCN1Cc1ccccc1,active: -81.6%
11,CC1=CCC(C(=O)O)C(C(=O)O)C1 (stereo unspecified),inconclusive: -55.7%
12,O=C(NNc1nc2ccccc2s1)c1ccc(F)cc1,inactive: -22.7%
13,O=C1CCCc2c1[nH]c1ccc(CN3CCCCC3)cc21,inconclusive: -31.2%
14,Cc1cc(=O)oc2cc(OCC(=O)OCC(=O)N3CCc4ccccc43)ccc12,inconclusive: -46.3%
15,CCc1ccc2c(c1)C1(NN=C(c3ccc(C)cc3)S1)C(=O)N2 (stereo unspecified),inactive: 1.43%
16,O=C(Nc1ccc2c(c1)OCCO2)c1ccc(NC(=O)C2CCCO2)cc1 (stereo unspecified),inconclusive: -34.4%
17,c1ccc(CN2CCN(c3ncnc4nc[nH]c34)CC2)cc1,inconclusive: -35.9%
18,COc1ccc(Nc2nc(N3CCCC3)nc(N3CCCC3)n2)c(OC)c1,inconclusive: -69.8%
19,O=C(O)[C@H]1CCC(=O)N1Cc1ccco1,inconclusive: -56.3%
20,CC(=O)NNS(=O)(=O)c1ccccc1[N+](=O)[O-],inconclusive: -33.4%
21,COc1ccc(-n2c(C)cc(/C=C3/SC(=S)N(C)C3=O)c2C)cc1,inconclusive: -30.3%
22,CCOc1cc(C)nc(N2CCCC(C(=O)NCc3ccccc3F)C2)n1 (stereo unspecified),inconclusive: -34.1%
23,O=C(CCC(=O)c1ccc[nH]1)c1ccc(Cl)cc1,inconclusive: -71.7%

row,SMILES,"activity change (PNC), negative = inhibition"
1,COc1ccc(C2C(C(=O)N3CCC(C)CC3)c3ccccc3C(=O)N2C)cc1 (stereo unspecified),active: -85.9%
2,COc1cc(C(=O)Oc2ccccc2/C=N/NC(=O)c2ccc(Cl)cc2)cc(OC)c1OC,inconclusive: -49.6%
3,CCC(=O)N1CCN(c2ccc(NC(=O)c3ccco3)cc2)CC1,inconclusive: -35.7%
4,Cc1ccc(/C=N/c2sc3c(c2C#N)CCC3)s1,inactive: -8.62%
5,Nc1nc2ccc(O)cc2s1,inactive: 33.4%
6,Cc1cccc(OCc2nnc(SCC(=O)N(C(C)C)C(C)C)n2Cc2ccco2)c1C,inconclusive: -37.2%
7,CCOC(=O)N1CCN(C(=O)c2cccc(NS(=O)(=O)c3ccc(F)c(F)c3)c2)CC1,active: -88.6%
8,Cc1c(NS(=O)(=O)c2cccc3nsnc23)c(=O)n(-c2ccccc2)n1C,inactive: -21.5%
9,O=C(OCCN1C(=O)c2ccccc2C1=O)c1cc(=O)[nH]c2ccccc12,inconclusive: -70.8%
10,CSCCC(N=CC1=C(O)CC(C)(C)CC1=O)C(=O)O (stereo unspecified),inactive: -6.72%
11,O=C(c1noc2c1CCCC2)N1CCCCC1,inconclusive: -71.2%
12,CCOc1ccccc1NC(=O)CN(C)S(=O)(=O)c1ccc(OC)c(C)c1,inactive: 18.7%
13,CCc1cc(C(=O)NNC(=S)Nc2cccc(C)c2)cs1,inconclusive: -35.1%
14,Cc1cccc(OCc2nc(-c3ccccn3)n[nH]2)c1,inconclusive: -38.6%
15,O=C1c2ccccc2C2(c3ccccc3)NCCN12 (stereo unspecified),inconclusive: -67.3%
16,CC(=O)c1cn(CC(=O)Nc2ccc(C)cc2C)c2ccccc12,inconclusive: -59.7%
17,Cc1ccc(S(=O)(=O)c2c(N)n(CCN3CCOCC3)c3nc4ccccc4nc23)cc1C,inconclusive: -37.8%
18,CC(=O)c1c(C)oc2ccc(N(C(C)=O)S(=O)(=O)c3ccc(Cl)c([N+](=O)[O-])c3)cc12,inconclusive: -40.6%
19,CN(c1ccc(C(=O)NCc2cccnc2)cc1)S(C)(=O)=O,active: -100%
20,COc1cc(CNCCc2ccc(S(N)(=O)=O)cc2)ccc1OCC(=O)NC1CCCCC1,inconclusive: -31%
21,Cc1ccc(NC(=O)CN2C(=O)NC(Cc3ccccc3)C2=O)cc1 (stereo unspecified),inconclusive: -32.9%
22,CCN(CC)CCNC(=O)c1c(C)n(-c2ccccc2)c2cc(Br)c(OC)cc12,inactive: 10.1%
23,NC(=O)C1CC(=O)N(c2ccc(OCC(=O)Nc3cccc(C(F)(F)F)c3)cc2)C1 (stereo unspecified),inconclusive: -44.5%

# 4 entries from above in another layout.
row | SMILES | activity change (PNC), negative = inhibition
12 | O=C(NNc1nc2ccccc2s1)c1ccc(F)cc1 | inactive: -22.7%
19 | O=C(O)[C@H]1CCC(=O)N1Cc1ccco1 | inconclusive: -56.3%
22 | CCOc1cc(C)nc(N2CCCC(C(=O)NCc3ccccc3F)C2)n1 (stereo unspecified) | inconclusive: -34.1%
15 | O=C1c2ccccc2C2(c3ccccc3)NCCN12 (stereo unspecified) | inconclusive: -67.3%

# Additional entries follow.

row,SMILES,"activity change (PNC), negative = inhibition"
1,CCN1C(C(=O)c2ccccc2)=C(Nc2ccccc2C)c2ccccc2S1(=O)=O,inconclusive: -43.9%
2,CSc1ccccc1NC(=O)c1ccc(C)o1,inconclusive: -37.8%
3,CCn1c(CSc2ncccn2)nnc1SCC(=O)N1CCc2ccccc21,inconclusive: -34.5%
4,O=c1[nH]c(-c2ccccn2)nc2ccccc12,inconclusive: -38.8%
5,COCCN(C(=O)c1csnn1)C(C(=O)NC(C)(C)C)c1cccc(OC)c1 (stereo unspecified),inconclusive: -63.5%
6,COc1ccc(S(=O)(=O)N(CCN2CCOCC2)Cc2cc(OC)ccc2OC)cc1,inconclusive: -78.5%
7,Cc1cc(NCCO)c2ccccc2n1,inconclusive: -35.8%
8,Cc1cnn(C(=S)NCC2CCCO2)c1 (stereo unspecified),inactive: 23.3%
9,COc1ccc2c(-c3ccccc3)cc(=O)[nH]c2c1,inconclusive: -32.9%
10,O=C(NCC(c1cccnc1)N1CCN(c2ccc(F)cc2)CC1)OCc1ccccc1 (stereo unspecified),inconclusive: -34.5%
11,COc1ccc(C)cc1NC(=O)c1ccc(NC(=O)CC2SC(N3CCCC3)=NC2=O)cc1 (stereo unspecified),inconclusive: -45.9%
12,Cc1sc2ncnc(OCC(=O)Nc3ccc4c(c3)OCCO4)c2c1C,inactive: -28.5%
13,CCN1C(=O)c2cccc3c(S(=O)(=O)NC(Cc4c[nH]c5ccccc45)C(=O)O)ccc1c23 (stereo unspecified),inconclusive: -62.3%
14,CCN(CC)CCN1C(=O)C(=O)/C(=C(/O)c2cnn(-c3ccccc3)c2C)C1c1cccnc1 (stereo unspecified),inactive: 19.7%
15,COc1ccccc1N(O)C1CC(=O)N(c2ccc(F)cc2)C1=O (stereo unspecified),inactive: 32.4%
16,Cc1ccccc1C(=O)NNC1CC(=O)N(c2ccc3c(c2)OCCO3)C1=O (stereo unspecified),inactive: -10.3%
17,COc1ccc(-c2noc(CCC(=O)N(C)c3cccc(C)c3)n2)cc1,inactive: 1.18%
18,COc1ccc(CNC(=O)C2CCCN2C(=O)NC2CCCCC2)cc1 (stereo unspecified),inconclusive: -36.2%
19,CCOC(=O)N1CCC(Nc2c(NCCCN3CCN(CC)CC3)c(=O)c2=O)CC1,inconclusive: -49.2%
20,CCCn1c(SCC(N)=O)nnc1C(C)C,inconclusive: -60.6%
21,CCCN1C(=O)CC(c2ccco2)Sc2ccccc21 (stereo unspecified),inconclusive: -57%
22,CC(NC(=O)CN1C(=O)COc2ccccc21)c1ccccc1 (stereo unspecified),inconclusive: -32.3%
23,CCn1c(-c2ccc(F)cc2)cnc1SCC(=O)N1CCc2ccccc21,inconclusive: -42.4%

row,SMILES,"activity change (PNC), negative = inhibition"
1,Cc1cnn(-c2cc(N/N=C/c3cccc(F)c3)ncn2)c1,inconclusive: -61.5%
2,O=C(COC(=O)CCc1c[nH]c(=O)[nH]1)Nc1ccccc1Cl,inconclusive: -56.2%
3,CNC(=S)N1N=C(c2ccc(Br)cc2)CC1c1ccc(OC)cc1 (stereo unspecified),active: -121%
4,COc1ccccc1NC(=O)c1nn(-c2ccc(OC(F)(F)F)cc2)ccc1=O,inconclusive: -48.6%
5,COc1ccc(OC)c(-n2c(CNC3CCN(Cc4ccccc4)CC3)nc3ccccc3c2=O)c1,inactive: 0.426%
6,O=C(NC(=S)Nn1cnc2c(cnn2-c2ccccc2)c1=O)c1ccccc1,inconclusive: -59.5%
7,COc1ccc([C@@H]2[C@H]3CN(C(C)=O)CC=C3C(C#N)=C(N)C2(C#N)C#N)c2ccccc12,inactive: 11.1%
8,CC/C(=N\NC(=O)c1ccc2c(c1)OCO2)C12CC3CC(CC(C3)C1)C2,inconclusive: -51%
9,O=C(CCCOc1ccccc1)Nc1ccccc1C(F)(F)F,inconclusive: -31.3%
10,CCOc1ccccc1C(=O)N1CCC(n2nnc3cc(C)ccc32)CC1,inactive: 21.3%
11,O=[N+]([O-])c1cc(S(=O)(=O)N2CCCC2)ccc1NN=C1CCCC1,inactive: 27.5%
12,Nc1nnc(CC(c2ccccc2)c2ccccc2)s1,inconclusive: -38.7%
13,Cc1cccc(N(CC(=O)Nc2c(C)n(C)n(-c3ccccc3)c2=O)S(C)(=O)=O)c1,inconclusive: -43.1%
14,Clc1ccc(CSc2nnc(/C=C/c3ccccc3)o2)c(Cl)c1,active: -87.5%
15,COc1ccc2c(c1)-c1c(ssc1=S)C(C)(C)N2,inactive: -6.57%
16,Cn1c(=O)c2c(n3cnnc13)-c1ccccc1CC21CCCC1,inactive: 8.82%
17,O=C(CSc1nnc(-c2ccco2)n1CC1CCCO1)NC1CCCC1 (stereo unspecified),inconclusive: -57%
18,Cc1ccc(-c2nn3c(C)nnc3s2)cc1NC(=O)C(C)C,inconclusive: -50.6%
19,Cc1c(C(=O)NCc2ccc3c(c2)OCO3)oc2ccc(S(=O)(=O)N3CCC(C)CC3)cc12,active: -100%
20,CC(C)C(c1nnnn1C1CCCC1)N1c2ccccc2CC1C (stereo unspecified),inconclusive: -72.3%
21,CNC(=S)N/N=C/c1ccc(OCc2ccccc2)c(Br)c1,inactive: 23.4%
22,O=C(c1ccc(Cl)cc1)C1CCN(C(=O)C2CC2)CC1,inactive: 17.9%

# 3 compounds already listed, ordered by formula weight, ascending:
row,SMILES,"activity change (PNC), negative = inhibition"
7,Cc1c(-c2ccc(Br)cc2)nc2ccccn12,inactive: -19.6%
21,COc1ccc(-n2c(C)cc(/C=C3/SC(=S)N(C)C3=O)c2C)cc1,inconclusive: -30.3%
21,CNC(=S)N/N=C/c1ccc(OCc2ccccc2)c(Br)c1,inactive: 23.4%
